Experimental data: PubChem BioAssay AID602196 (INSERM, 2012)
The whole screen tested about 23,000 reagents; below is a random part of them. In the full data, 455 (2%) are marked active. 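Active includes both protection and sensitisation; some change values fall well beyond the stated -50 to +50 range.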 Entries without a mark were called inactive. The numbers tell different reagents against one gene apart. Not stated in the record: the amount of reagent.

- Assay: 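Modifiers of cisplatin sensitivity in A549 cells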
- System: human A549 lung cancer cells
- Reagent: siRNA pair against human genes
- Time to read-out: 48 h transfection before cisplatin; time from cisplatin to read-out not stated
- Conditions: cisplatin at a dose killing half of control-siRNA cells; exact dose and duration not given
- Read-out: 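Shift in cisplatin death relative to control siRNA, from -50 (all cells die) to +50 (no cells die); siRNAs harmful on their own scored 0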
- Reading the numbers: two-siRNA summed score (-2 to +2): higher = both siRNAs protect from cisplatin killing; -2 means both sensitise; mean protection from cisplatin (shift in death) and protection from cisplatin (shift in death), siRNA C and protection from cisplatin (shift in death), siRNA D: higher = protection from cisplatin killing
- Hit rule: 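Each siRNA scores 0 if harmful alone by LDH or WST-1, otherwise +1 if it reduces and -1 if it increases cisplatin killing; a gene is active when both siRNAs agree (sum +2 or -2)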
- Calls: active = both siRNAs shift cisplatin killing the same way; inactive = no consistent shift, or siRNA harmful alone

gene symbol,reagent no.,two-siRNA summed score (-2 to +2),mean protection from cisplatin (shift in death) (%),"protection from cisplatin (shift in death), siRNA C (%)","protection from cisplatin (shift in death), siRNA D (%)"
RAD54L2 (GeneID 23132),1,0,8,14.2,1.8
SYNE3 (GeneID 161176),1,0,-5.5,-6.5,-4.4
SYNE3 (GeneID 161176),2,0,3.9,15.6,-7.8
TRAPPC13 (GeneID 80006),1,0,1.3,4.2,-1.5
LOC338914,1,1,14.1,19.6,8.6
METTL9 (GeneID 51108),1,-1,-5.5,2.9,-13.8
TGFB2 (GeneID 7042),1,0,-16.2,-16,-16.5
PLAC8L1 (GeneID 153770),1,0,3.1,2,4.3
LOC388937,1,-1,-11.9,0.1,-23.8
SH3KBP1 (GeneID 30011),1,1,15.1,18.6,11.6
MRFAP1 (GeneID 93621),1,0,-7.5,-13.2,-1.9
DPY19L2 (GeneID 283417),1,0,3.6,6,1.3
LOC440081,1,0,14.9,8.5,21.3
NSMCE4A (GeneID 54780),1,0,3.9,7.5,0.3
CACNA1G-AS1 (GeneID 253962),1,0,8.4,14.8,1.9
AK9 (GeneID 221264),1,0,2.7,-2.9,8.3
AK9 (GeneID 221264),2,0,13.9,6.2,21.5
AK9 (GeneID 221264),3,1,10.7,21.2,0.1
SAT1 (GeneID 6303),1,-1,-18.9,-11,-26.9
ATP11B (GeneID 23200),1,0,1.2,12,-9.6
RAB40A (GeneID 142684),1,2 (active),24.5,24,25
LOC388638,1,0,4.5,5.4,3.6
BHMT2 (GeneID 23743),1,0,-5.2,-4.3,-6
ZNF525 (GeneID 170958),1,0,-0.7,-0.9,-0.4
RLN1 (GeneID 6013),1,1,7.8,24.6,-9
SLC68A1 (GeneID 79847),1,-1,-11.8,-16.5,-7.1
CLDN23 (GeneID 137075),1,1,11,11.3,10.7
AOX1 (GeneID 316),1,-1,-13.4,8.1,-35
CHAF1B (GeneID 8208),1,0,4,10.4,-2.5
LOC440986,1,2 (active),20,16.4,23.7
TSEN34 (GeneID 79042),1,0,-10.5,-15.1,-5.9
ARL8B (GeneID 55207),1,0,-0.1,-1,0.7
NDUFB7 (GeneID 4713),1,0,17.1,14.7,19.5
LRMDA (GeneID 83938),1,1,15.3,16.4,14.3
NGLY1 (GeneID 55768),1,0,4,5.3,2.7
MAIP1 (GeneID 79568),1,0,-3.1,-1,-5.2
LOC389659,1,0,12.9,15.9,10
KLHL1 (GeneID 57626),1,0,-0.4,6.3,-7
MGAT5 (GeneID 4249),1,0,1.7,-13.1,16.5
